Experimental data: PubChem BioAssay AID651768 (National Center for Advancing Translational Sciences (NCATS), 2012)
The whole screen tested about 360,000 compounds, of which about 1,700 (0.47%) were called active. Inconclusive means that the source gave no clear call. Such entries were picked first, then a sample of the others. Calls come from the whole dose curve; as a rule, active = well fitted inhibition curve with a large enough effect; inconclusive = small, poorly fitted or top-dose-only effect; inactive = no such curve, though single readings can be large or run the other way. A potency beside an inconclusive call is a rough fit, not a confirmed value.

Sequences of proteins named here, by UniProt entry; tags and fusion partners are left off.
UniProt Q14191, whole entry, looked up: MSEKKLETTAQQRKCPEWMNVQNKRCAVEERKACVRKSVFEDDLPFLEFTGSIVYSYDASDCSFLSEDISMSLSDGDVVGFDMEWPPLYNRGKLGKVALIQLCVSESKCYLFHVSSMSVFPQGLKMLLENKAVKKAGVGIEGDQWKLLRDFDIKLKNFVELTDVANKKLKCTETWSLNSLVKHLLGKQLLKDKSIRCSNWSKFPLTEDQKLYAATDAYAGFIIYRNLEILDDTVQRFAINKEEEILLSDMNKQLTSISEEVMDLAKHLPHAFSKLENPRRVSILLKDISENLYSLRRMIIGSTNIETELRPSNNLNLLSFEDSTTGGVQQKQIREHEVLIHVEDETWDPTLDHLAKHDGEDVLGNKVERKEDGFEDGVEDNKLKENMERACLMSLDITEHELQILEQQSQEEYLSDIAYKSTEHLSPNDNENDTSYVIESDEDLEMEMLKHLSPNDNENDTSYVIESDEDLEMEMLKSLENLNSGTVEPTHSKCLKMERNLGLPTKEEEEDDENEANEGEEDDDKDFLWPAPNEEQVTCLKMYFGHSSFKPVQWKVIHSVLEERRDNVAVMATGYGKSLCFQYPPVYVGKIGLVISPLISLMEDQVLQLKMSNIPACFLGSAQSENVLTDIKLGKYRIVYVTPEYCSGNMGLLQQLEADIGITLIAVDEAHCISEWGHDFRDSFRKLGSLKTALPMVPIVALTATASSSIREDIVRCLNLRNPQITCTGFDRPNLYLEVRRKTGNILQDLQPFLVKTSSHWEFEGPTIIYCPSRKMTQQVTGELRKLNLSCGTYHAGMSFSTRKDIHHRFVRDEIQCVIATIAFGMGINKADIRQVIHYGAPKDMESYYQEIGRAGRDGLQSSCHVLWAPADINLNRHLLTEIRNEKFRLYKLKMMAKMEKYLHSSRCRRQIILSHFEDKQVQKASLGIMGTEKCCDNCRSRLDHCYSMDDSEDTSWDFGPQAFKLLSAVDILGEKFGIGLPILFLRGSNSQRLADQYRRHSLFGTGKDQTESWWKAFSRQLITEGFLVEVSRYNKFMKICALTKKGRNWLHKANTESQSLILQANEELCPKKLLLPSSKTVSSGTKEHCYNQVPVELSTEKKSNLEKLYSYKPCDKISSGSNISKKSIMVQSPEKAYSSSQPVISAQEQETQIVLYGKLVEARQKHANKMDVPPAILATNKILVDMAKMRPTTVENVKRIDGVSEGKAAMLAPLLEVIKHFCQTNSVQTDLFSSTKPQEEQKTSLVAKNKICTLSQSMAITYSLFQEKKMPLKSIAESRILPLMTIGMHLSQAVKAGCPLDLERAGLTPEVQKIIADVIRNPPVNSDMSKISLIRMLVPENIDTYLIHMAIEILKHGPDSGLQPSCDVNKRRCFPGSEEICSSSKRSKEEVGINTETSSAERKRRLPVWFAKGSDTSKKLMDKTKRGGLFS

biological target: Bifunctional 3'-5' exonuclease/ATP-dependent helicase WRN (Homo sapiens) (UniProt Q14191); experiment: qHTS for Inhibitors of WRN Helicase; conditions: WRN helicase unwinding, fluorescent forked duplex, kinetic; activity change, negative = inhibition: at 114 µM (top of the series) unless noted; note: nearly all actives have a fitted effect of over 55% in size
Outline: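 Kinetic fluorescence helicase assay: unwinding of a quenched forked DNA duplex (100 nM final) with 2 mM ATP final raises red fluorescence (525/598 nm). Compounds sat 15 min at room temperature with 20 nM WRN beforehand.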
% is set by controls: 0 for no effect and ±100 for the full control effect; potency is the fitted concentration of half-maximal effect.

Structure (SMILES)	Potency	activity change, negative = inhibition
CN(C)c1ccc(/C=C/C(=O)c2cccc(Br)c2)cc1	inconclusive: 50.1 µM [inhibitor, partial curve]	–
COc1ccc(C(=O)N2CCC(CCC(=O)Nc3cccc(C)c3)CC2)cc1	inconclusive: 79.4 µM [inhibitor, single point]	–
CC1CCN(S(=O)(=O)c2ccc(NC(=O)c3ccccc3F)cc2)CC1	inconclusive: 10 µM [inhibitor, partial curve]	–
COc1cc(/C=C2\SC(=O)N(CC(=O)Nc3ccc(C)cc3)C2=O)cc(Cl)c1OCC(=O)O	active: 50.1 µM	–
COc1ccc(S(=O)(=O)CC(=O)c2cc3cc(Br)ccc3oc2=O)cc1	inconclusive: 50.1 µM [inhibitor, partial curve]	–
O=C1c2cc(O)c(O)cc2OC(c2ccc(O)c(O)c2)C1O (stereo not given)	inconclusive: 31.6 µM [inhibitor, partial curve]	–
O=C(N/N=C/c1coc2ccccc2c1=O)c1cc(O)cc(O)c1	–	inactive: -3.99%
Cc1cc(C)cc(OCC(=O)OCC(=O)Nc2cc(S(=O)(=O)N3CCOCC3)ccc2Cl)c1	inconclusive: 15.8 µM [inhibitor, single point]	–
O=C(COc1ccc2ccccc2c1)Nc1cccc(C(=O)Nc2ccccc2C(=O)O)c1	inconclusive: 50.1 µM [inhibitor, partial curve]	–
CCc1cccc2c(/C=N/NC(=O)c3cccc(S(=O)(=O)Nc4ccccc4Cl)c3)c[nH]c12	inconclusive: 39.8 µM [inhibitor, partial curve]	–
COc1cccc(/C=N/NC(=O)c2nc(-c3ccccc3)cc(-c3ccccc3)n2)c1O	inconclusive: 28.2 µM [inhibitor, single point]	–
Cc1cccc(C(=O)OCC(=O)c2ccc(CC(=O)N3CCOCC3)s2)c1C	inconclusive: 63.1 µM [inhibitor, partial curve]	–
COc1ccc(/C=N/N2C(=N)SCC2=O)cc1	–	inactive: -8.72%
COc1ccc(N2CCN(S(=O)(=O)c3ccc(-n4cnnn4)c(C)c3)CC2)cc1	inconclusive: 50.1 µM [inhibitor, partial curve]	–
CSc1snnc1-c1ccccc1	–	inactive: -4.17%
CN(C)C(CNC(=O)c1cc(-c2ccco2)nc2ccccc12)c1ccccc1 (stereo not given)	inconclusive: 50.1 µM [inhibitor, partial curve]	–
O=c1[nH]c2ccccc2c2nc3ccccn3c12	–	inactive: 3.15%
Cc1ccccc1NC(=S)Nc1cccc2cnccc12	–	inactive: -16.9%
Cc1coc2c(O)cc3c(c12)OC1(N2CCCCC2)C(=O)NCCCC31 (stereo not given)	inconclusive: 89.1 µM [inhibitor, partial curve, poor fit]	–

A few values from above.
Value for Cc1cccc(C(=O)OCC(=O)c2ccc(CC(=O)N3CCOCC3)s2)c1C under Potency: inconclusive: 63.1 µM [inhibitor, partial curve]
Value for COc1cc(/C=C2\SC(=O)N(CC(=O)Nc3ccc(C)cc3)C2=O)cc(Cl)c1OCC(=O)O under Potency: active: 50.1 µM
